The list shows a part of the results. These are raw signals, not scaled to a control.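 Primary screen: polymyxin B was added at a level permeabilizing Salmonella outer membranes while sparing inner membranes. DMSO wells, both with and without polymyxin B, established maximum growth. Plate-to-plate variation meant each plate was ranked on its own, and the lowest-OD600 compounds were selected as hits.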
Test system: Salmonella enterica serovar Typhimurium SL1344
Test: bacterial growth OD600 after 18 h with compound and polymyxin B; higher = more bacterial growth (less inhibition)
Conditions: 50 µM, Mueller-Hinton broth

Structure (SMILES) | bacterial growth OD600 (polymyxin B 1 µg/mL) | bacterial growth OD600 (polymyxin B 0.75 µg/mL)
CCc1ocnc1C(=O)NC1CC(=O)N(Cc2ccccc2C(F)(F)F)C1 (stereo not given) | 1.08 | 
Cn1ccnc1CN1CCCC1C(=O)Nc1cccc(-n2cccn2)c1 (stereo not given) |  | 0.762
CCCn1ncc(C(=O)NCc2cccnc2Oc2ccccc2C)c1C |  | 0.914
CCC1CN(CCNC(=O)C2CC(=O)N(CCOC)C2)Cc2cc(OC)ccc2O1 (stereo not given) |  | 0.865
O=C(CC1CCCCC1)Nc1nc2c(s1)C(=O)CC(C(=O)N1CCN(C(=O)c3ccco3)CC1)C2 (stereo not given) |  | 0.744
Cc1ccc(CN2CCC(C(=O)Nc3ccc(Oc4cccnc4)cc3)CC2)cc1 | 0.726 | 
O=C1CCCN1CC1CCN(C(=O)c2ccc(NC3CCC3)nc2)CC1 |  | 0.746
COc1ccccc1CNC(=O)c1c(OC)cc(=O)n2c1CCN(Cc1ccc3ccccc3c1)CC2 |  | 0.772
COc1cc2nc(N(C)C)c(CNCCc3ccccc3Cl)cc2c(OC)c1OC |  | 0.711
CCOC(=O)C1(CCc2ccccc2)CCN(C(=O)C(C)n2ccnc2C(C)C)CC1 (stereo not given) |  | 0.798
CCOC(=O)C1(Cc2ccc(F)cc2)CCCN(C(=O)c2cc(C(C)C)no2)C1 (stereo not given) | 0.011 | 
CC(C)(C)NC(=O)C1CCCN(C2CCN(Cc3ccncc3)CC2)C1 (stereo not given) | 0.952 | 
O=C(NCC1CCCO1)c1cc(Cl)ccc1OC1CCN(C2CCCC2)CC1 (stereo not given) |  | 0.767
O=C(c1cc(COc2ccc3c(c2)OCO3)[nH]n1)N1CCC[C@H]1CO | 0.889 | 
COc1ccc(CCN2CC(NC(=O)Cc3cccc(C)c3)CC2=O)cc1 (stereo not given) | 0.495 | 
O=C(NC1CC(=O)N(Cc2cccc(F)c2)C1)c1cccnc1 (stereo not given) | 1.09 | 
Cc1ccccc1CCN1CCCC(CN(C)C(=O)Nc2ccccc2)C1 (stereo not given) | 1.1 | 
O=C(CC1=CCCCC1)N1CCCC(Nc2ccc3c(c2)OCCO3)C1 (stereo not given) | 0.45 | 
O=C(CC(c1ccccc1)c1ccc(Cl)cc1)N1CCOCC1 (stereo not given) | 0.708 | 
O=C(Nc1ccc(Oc2ccccc2F)cc1)C1CCN(Cc2nccs2)CC1 | 0.919 | 

Arranged by number of heavy atoms (high to low): three of the compounds above.
Structure (SMILES) | bacterial growth OD600 (polymyxin B 1 µg/mL) | bacterial growth OD600 (polymyxin B 0.75 µg/mL)
Cc1ccc(CN2CCC(C(=O)Nc3ccc(Oc4cccnc4)cc3)CC2)cc1 | 0.726 | 
CCCn1ncc(C(=O)NCc2cccnc2Oc2ccccc2C)c1C |  | 0.914
O=C(CC(c1ccccc1)c1ccc(Cl)cc1)N1CCOCC1 (stereo not given) | 0.708 | 
